Earlier results, collected in patent US20220088150A1, “Octreotide Microsphere-Based Arterial Embolization for Treating Obesity” (Biovena Science, LLC, priority 2018, published 2022).
At least one compound was matched to its structure with a doubt left.

Details: 3 mg, after one year

CCCCCCCCCCCCCCCC(=O)N[C@@H](CCC(=O)NCCCC[C@H](NC(=O)[C@H](C)NC(=O)[C@H](C)NC(=O)[C@H](CCC(N)=O)NC(=O)CNC(=O)[C@H](CCC(=O)O)NC(=O)[C@H](CC(C)C)NC(=O)[C@H](Cc1ccc(O)cc1)NC(=O)[C@H](CO)NC(=O)[C@H](CO)NC(=O)[C@@H](NC(=O)[C@H](CC(=O)O)NC(=O)[C@H](CO)NC(=O)[C@@H](NC(=O)[C@H](Cc1ccccc1)NC(=O)[C@@H](NC(=O)CNC(=O)[C@H](CCC(=O)O)NC(=O)[C@H](C)NC(=O)[C@@H](N)Cc1cnc[nH]1)[C@@H](C)O)[C@@H](C)O)C(C)C)C(=O)N[C@@H](CCC(=O)O)C(=O)N[C@@H](Cc1ccccc1)C(=O)N[C@H](C(=O)N[C@@H](C)C(=O)N[C@@H](Cc1c[nH]c2ccccc12)C(=O)N[C@@H](CC(C)C)C(=O)N[C@H](C(=O)N[C@@H](CCCNC(=N)N)C(=O)NCC(=O)N[C@@H](CCCNC(=N)N)C(=O)NCC(=O)O)C(C)C)[C@@H](C)CC)C(=O)O [liraglutide]
patients with relative weight loss of 5%: more than 50% | patients with relative weight loss of 10%: more than 25%
